Experimental data: EP2808342B1, “Medium for in-vitro toxicity testing and in-vitro toxicity test method using the same” (priority 2013, dated 2014)

System: N2a cells
Experiment: Toxicity test (CCK-8 cell proliferation assay) on 3D cell clusters grown on REP-coated plates
Type: cell-based
Conditions: ratio of IC50, Cell Cluster of Ex. 2 (A) / Cultured Cell of C. Ex. 1 (B)
Procedure: REP was dissolved at a concentration of 10 µM in phosphate buffered saline (PBS), and the 10 µM REP solution was aliquoted in an amount of 50 µl per well into 96-well polystyrene plates and incubated for 1 hr at 37°C. The supernatant was removed from each well to leave REP to adhere to the plates.
N2a cells ([…], purchased from the ATCC, USA) were seeded at a density of 5x10^5 cells/well into the culture plates coated with REP prepared in Example 1 (hereinafter referred to as "REP-plate"). The cell culture medium was Eagle's Minimum Essential Medium (EMEM) supplemented with 2 mM glutamine, 1 mM sodium pyruvate, 1.5 g/l sodium bicarbonate, 100 units/ml penicillin and 100 µg/ml streptomycin. The REP-plates where N2a cells were seeded were incubated for 3 days at 37°C in a 5% CO2 atmosphere with humidity of 95% to afford the formation of 3D cell clusters.
To the cell clusters obtained in Example 2 or the cells obtained in Comparative Example 1 was added a solution of PFOA (perfluorooctanoic acid, Mw 414.1 g/mol, Sigma-Aldrich, 171468-5G, 96%) with a concentration of 5 µM, 20 µM, 50 µM, 100 µM, 200 µM, 300 µM, 400 µM, 500 µM, 600 µM, 700 µM, 800 µM, 900 µM, 1,000 µM or 2,000 µM. After 3, 24 or 48 hrs of incubation, the cells were assayed for proliferation using a cell counting kit-8 (CCK-8, Dojindo, Japan).
The PFOA solution was made by dissolving PFOA in dimethyl sulfoxide (DMSO, Sigma-Aldrich, USA) at a final concentration of 5 µM, 20 µM, 50 µM, 100 µM, 200 µM, 300 µM, 400 µM, 500 µM, 600 µM, 700 µM, 800 µM, 900 µM, 1,000 µM or 2,000 µM.
For the cell proliferation assay, absorbance (OD) at 450 nm was measured on an amicroplate reader (Multiskan, Thermo USA). From the measurements, inhibitory concentration (IC50) values were calculated using TOXCALC 5.0 (Tidepool Scientific Software, USA).
A solution of PFOS (perfluorooctane sulfonates; Mw 538.2, Sigma-Aldrich, 77282-10G, ≥98.0 (T)) with a concentration of 5 µM, 20 µM, 50 µM, 100 µM, 200 µM, 300 µM, 400 µM, 500 µM, 600 µM, 700 µM, 800 µM, 900 µM, 1,000 µM or 2, 000 µM was added to the cell clusters obtained in Example 2 and to the cells obtained in Comparative Example 1. After 3, 24 or 48 hrs of incubation, the cells were assayed for proliferation using a cell counting kit-8 (CCK-8, Dojindo, Japan).
The PFOS solution was made by dissolving PFOS in dimethyl sulfoxide (DMSO, Sigma-Aldrich, USA) at a final concentration of 5 µM, 20 µM, 50 µM, 100 µM, 200 µM, 300 µM, 400 µM, 500 µM, 600 µM, 700 µM, 800 µM, 900 µM, 1,000 µM or 2,000 µM.

Structure (SMILES) | A/B (3 hrs) | A/B (24 hrs) | A/B (48 hrs)
O=C(O)C(F)(F)C(F)(F)C(F)(F)C(F)(F)C(F)(F)C(F)(F)C(F)(F)F [PFOA, perfluorooctanoic acid] | 1.24 | 1.27 | 1.37
O=S(=O)(O)C(F)(F)C(F)(F)C(F)(F)C(F)(F)C(F)(F)C(F)(F)C(F)(F)C(F)(F)F [PFOS, perfluorooctane sulfonates] | 2.41 | 1.62 | 1.37
